Measured values: paper PMC12732654, “Thermodynamic Profiling Reveals DNA Polymerase Template Binding, Substrate Incorporation, and Exonuclease Function”
Construct, isoform or probe ends are uncertain for at least one entry. The comparison behind a weaker result is the experiment's own reference, which may not be listed here. At least one verdict was read from the data and is not stated in words by the source. Tags and fusion partners may be left off the protein sequences shown.

Biological target: T1, SS_01 (engineered Phi29 DNA polymerase) M97K,A484E,K512Y (UniProt P03680)
T1 sequence (looked up, limits assumed): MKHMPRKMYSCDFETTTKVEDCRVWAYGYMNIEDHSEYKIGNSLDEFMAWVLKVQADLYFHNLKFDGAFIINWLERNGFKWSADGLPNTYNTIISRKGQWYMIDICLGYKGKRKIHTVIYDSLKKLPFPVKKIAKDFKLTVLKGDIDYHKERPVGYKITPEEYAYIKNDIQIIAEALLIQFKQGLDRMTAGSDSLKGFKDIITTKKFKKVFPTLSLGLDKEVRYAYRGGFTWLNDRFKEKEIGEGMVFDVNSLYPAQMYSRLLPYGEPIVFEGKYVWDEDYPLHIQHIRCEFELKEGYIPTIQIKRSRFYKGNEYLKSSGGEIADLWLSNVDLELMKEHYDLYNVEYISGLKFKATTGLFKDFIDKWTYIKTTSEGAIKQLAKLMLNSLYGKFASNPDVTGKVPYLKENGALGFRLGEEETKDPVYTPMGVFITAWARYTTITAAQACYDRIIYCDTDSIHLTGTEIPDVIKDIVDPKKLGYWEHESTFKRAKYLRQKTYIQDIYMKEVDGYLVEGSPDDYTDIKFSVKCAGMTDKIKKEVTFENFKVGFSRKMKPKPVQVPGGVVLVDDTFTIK
Assay: EMSA
Conditions: EMSA: 20 mM HEPES pH 7.5, 4 mM DTT, 1 mM metal chloride, 30 C 30 min, 100 nM DNA, 10 nM polymerase, recombinant protein, folded or branched DNA

Measured: binding result

TTTTTGCGCTCGAGATCTCCGTAAGGAGATCTCGAGCGCGGGACTACTACTGGGATCATCATAGCCACCTCAGCTGCACGTAAGTGCAGCTGAGGTGGC [Seq99A hairpin primed template]
binds more weakly: 1 mM Ca2+ | 1 mM Sr2+ | no divalent metal
